# According to the supplement of paper PMC6411743:
# Sequences of proteins named here, by UniProt entry; tags and fusion partners are left off. A change or cut given only in a name is not applied to a line headed by its entry.
# UniProt P33240: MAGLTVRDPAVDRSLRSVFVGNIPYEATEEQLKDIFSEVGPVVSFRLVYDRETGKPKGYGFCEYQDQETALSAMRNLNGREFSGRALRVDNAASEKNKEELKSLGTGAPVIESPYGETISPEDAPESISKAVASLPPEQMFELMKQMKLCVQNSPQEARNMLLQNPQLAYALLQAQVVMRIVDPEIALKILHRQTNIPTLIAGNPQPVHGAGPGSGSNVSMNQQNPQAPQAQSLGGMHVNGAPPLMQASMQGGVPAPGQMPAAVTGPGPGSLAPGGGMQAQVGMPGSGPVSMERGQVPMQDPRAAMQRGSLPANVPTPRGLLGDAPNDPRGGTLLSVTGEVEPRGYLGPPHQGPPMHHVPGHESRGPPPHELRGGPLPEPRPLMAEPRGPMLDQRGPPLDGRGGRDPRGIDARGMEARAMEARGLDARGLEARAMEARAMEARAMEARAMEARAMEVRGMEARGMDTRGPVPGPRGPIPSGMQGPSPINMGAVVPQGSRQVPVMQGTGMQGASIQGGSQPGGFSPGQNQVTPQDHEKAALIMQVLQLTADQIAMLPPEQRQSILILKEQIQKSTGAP
# UniProt P28799: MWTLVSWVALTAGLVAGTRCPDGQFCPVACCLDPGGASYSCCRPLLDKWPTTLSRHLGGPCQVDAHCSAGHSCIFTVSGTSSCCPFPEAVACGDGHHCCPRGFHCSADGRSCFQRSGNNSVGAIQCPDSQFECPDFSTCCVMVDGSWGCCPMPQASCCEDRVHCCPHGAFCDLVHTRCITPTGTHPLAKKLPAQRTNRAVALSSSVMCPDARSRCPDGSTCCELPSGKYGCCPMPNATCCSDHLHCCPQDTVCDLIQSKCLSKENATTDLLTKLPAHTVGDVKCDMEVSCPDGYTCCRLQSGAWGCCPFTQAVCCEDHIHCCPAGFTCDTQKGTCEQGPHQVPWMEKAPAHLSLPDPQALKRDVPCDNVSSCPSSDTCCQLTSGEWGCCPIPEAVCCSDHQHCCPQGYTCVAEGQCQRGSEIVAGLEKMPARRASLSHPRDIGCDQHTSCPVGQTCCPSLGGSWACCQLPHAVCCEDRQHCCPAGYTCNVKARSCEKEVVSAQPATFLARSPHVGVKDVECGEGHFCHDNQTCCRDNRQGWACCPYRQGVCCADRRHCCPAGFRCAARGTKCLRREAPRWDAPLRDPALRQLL
# UniProt P19623: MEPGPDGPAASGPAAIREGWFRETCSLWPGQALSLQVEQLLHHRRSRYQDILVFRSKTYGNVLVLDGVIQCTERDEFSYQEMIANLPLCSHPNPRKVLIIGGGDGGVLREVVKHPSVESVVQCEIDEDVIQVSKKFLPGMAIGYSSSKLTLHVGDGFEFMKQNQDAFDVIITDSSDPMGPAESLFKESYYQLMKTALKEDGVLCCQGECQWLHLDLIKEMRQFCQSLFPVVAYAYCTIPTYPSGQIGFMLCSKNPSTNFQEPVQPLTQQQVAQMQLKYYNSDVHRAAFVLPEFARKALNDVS
# UniProt P29218: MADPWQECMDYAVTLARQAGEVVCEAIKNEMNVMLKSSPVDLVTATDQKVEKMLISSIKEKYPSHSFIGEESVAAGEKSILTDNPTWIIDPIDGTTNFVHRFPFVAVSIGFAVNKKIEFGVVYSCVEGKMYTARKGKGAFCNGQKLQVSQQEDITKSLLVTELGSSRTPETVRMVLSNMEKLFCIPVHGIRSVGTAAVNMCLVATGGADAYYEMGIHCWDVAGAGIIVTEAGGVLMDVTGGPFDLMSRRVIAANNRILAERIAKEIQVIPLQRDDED
# UniProt P22695: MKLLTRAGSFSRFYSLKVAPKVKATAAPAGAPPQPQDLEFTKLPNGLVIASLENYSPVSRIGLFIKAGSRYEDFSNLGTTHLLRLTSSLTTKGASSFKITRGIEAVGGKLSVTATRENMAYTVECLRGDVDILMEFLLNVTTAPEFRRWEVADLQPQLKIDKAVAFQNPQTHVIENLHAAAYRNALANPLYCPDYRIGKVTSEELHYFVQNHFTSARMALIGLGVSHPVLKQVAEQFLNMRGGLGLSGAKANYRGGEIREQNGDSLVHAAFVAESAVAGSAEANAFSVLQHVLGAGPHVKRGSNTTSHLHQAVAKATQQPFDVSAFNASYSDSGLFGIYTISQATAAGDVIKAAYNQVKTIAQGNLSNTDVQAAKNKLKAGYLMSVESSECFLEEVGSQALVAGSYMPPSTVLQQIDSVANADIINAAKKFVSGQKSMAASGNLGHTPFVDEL
# UniProt P28074: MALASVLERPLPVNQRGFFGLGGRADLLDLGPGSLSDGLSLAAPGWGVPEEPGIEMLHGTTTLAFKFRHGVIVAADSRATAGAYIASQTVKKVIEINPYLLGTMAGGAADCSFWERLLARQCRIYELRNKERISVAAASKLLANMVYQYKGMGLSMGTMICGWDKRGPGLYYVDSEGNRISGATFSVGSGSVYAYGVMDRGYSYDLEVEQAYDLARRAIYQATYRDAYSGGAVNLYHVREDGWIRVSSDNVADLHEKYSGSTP
# UniProt P19838: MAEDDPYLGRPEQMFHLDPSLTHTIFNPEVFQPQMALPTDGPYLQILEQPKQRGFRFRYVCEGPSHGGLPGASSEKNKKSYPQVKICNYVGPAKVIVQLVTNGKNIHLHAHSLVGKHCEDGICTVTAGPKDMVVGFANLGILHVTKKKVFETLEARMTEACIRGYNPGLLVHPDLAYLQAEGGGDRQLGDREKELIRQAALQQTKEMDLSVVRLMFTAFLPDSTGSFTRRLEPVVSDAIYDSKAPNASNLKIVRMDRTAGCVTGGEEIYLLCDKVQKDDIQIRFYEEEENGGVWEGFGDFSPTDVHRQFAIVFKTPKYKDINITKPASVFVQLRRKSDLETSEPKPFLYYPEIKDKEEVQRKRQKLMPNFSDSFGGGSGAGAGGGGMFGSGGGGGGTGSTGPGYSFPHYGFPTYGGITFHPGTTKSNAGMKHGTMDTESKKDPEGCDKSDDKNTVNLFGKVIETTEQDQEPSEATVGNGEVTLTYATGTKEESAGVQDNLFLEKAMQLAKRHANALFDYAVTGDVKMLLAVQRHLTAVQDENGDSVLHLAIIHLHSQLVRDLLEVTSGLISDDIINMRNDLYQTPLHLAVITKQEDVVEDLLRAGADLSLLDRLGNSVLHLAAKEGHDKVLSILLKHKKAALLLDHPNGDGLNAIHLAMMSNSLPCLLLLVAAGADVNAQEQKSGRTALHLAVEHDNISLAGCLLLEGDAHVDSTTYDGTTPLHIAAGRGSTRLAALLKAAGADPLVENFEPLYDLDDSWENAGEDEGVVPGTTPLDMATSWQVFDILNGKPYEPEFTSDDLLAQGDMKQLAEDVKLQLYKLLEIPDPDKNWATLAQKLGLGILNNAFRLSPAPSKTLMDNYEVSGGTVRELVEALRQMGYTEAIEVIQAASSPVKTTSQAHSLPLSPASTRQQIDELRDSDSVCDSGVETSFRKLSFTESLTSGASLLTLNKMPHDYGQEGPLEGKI
# UniProt P30520: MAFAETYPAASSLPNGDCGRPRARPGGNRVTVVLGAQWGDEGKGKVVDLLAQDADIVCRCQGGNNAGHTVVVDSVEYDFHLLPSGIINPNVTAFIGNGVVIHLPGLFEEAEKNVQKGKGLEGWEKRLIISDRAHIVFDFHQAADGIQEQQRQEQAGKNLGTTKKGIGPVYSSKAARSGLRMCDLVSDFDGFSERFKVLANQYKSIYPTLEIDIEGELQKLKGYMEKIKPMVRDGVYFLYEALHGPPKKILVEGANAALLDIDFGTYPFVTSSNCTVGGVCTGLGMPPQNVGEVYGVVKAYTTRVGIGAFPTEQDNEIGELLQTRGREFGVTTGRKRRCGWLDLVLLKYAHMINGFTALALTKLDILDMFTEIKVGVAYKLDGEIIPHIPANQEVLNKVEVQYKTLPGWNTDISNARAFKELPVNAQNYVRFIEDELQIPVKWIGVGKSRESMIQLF
# UniProt P30038: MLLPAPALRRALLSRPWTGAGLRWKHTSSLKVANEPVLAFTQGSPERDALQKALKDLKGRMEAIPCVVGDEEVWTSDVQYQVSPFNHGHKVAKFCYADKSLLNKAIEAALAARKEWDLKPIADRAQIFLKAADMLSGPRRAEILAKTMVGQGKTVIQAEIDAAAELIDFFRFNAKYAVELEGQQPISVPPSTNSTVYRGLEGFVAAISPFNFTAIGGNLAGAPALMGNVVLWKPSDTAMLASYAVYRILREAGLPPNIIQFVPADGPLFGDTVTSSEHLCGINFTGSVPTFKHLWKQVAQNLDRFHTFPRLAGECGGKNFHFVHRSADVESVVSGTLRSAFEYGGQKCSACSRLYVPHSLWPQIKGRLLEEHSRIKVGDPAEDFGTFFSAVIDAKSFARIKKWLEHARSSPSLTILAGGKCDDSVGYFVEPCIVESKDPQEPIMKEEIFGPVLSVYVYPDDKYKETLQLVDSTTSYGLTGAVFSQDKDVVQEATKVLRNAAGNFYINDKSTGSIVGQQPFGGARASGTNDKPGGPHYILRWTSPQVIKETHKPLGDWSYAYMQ
# UniProt P23368: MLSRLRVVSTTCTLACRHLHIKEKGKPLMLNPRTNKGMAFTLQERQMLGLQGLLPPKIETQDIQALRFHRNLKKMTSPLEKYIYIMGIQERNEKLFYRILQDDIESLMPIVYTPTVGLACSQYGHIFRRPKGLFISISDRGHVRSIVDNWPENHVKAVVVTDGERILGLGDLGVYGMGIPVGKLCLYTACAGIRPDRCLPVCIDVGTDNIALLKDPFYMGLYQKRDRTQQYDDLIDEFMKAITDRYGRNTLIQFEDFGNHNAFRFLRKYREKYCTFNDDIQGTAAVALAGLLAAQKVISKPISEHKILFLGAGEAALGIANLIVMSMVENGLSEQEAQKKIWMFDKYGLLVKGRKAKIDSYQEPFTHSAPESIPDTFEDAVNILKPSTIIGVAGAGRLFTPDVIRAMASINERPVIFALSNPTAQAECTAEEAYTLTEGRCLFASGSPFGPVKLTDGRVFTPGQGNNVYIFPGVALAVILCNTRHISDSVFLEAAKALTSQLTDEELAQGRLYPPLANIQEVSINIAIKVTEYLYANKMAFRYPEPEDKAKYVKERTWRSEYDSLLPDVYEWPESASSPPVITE
# UniProt P31153, whole entry, looked up: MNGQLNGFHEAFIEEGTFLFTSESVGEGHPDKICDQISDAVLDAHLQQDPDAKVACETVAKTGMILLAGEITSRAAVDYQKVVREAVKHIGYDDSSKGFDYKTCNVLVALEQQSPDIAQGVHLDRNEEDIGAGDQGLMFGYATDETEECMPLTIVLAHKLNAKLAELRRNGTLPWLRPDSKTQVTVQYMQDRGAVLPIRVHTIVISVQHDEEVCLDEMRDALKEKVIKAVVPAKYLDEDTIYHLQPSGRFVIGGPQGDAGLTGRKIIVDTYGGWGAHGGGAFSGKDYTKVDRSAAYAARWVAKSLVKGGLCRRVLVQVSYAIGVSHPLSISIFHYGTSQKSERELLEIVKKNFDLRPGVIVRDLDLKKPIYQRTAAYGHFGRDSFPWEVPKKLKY
# UniProt P38117: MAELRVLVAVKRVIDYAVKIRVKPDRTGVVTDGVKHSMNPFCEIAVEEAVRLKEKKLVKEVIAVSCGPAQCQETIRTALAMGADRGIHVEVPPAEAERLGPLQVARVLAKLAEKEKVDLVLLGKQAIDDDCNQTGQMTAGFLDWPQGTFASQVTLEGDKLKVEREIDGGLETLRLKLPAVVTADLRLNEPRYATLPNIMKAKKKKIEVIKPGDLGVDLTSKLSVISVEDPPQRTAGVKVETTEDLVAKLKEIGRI
# UniProt P30825: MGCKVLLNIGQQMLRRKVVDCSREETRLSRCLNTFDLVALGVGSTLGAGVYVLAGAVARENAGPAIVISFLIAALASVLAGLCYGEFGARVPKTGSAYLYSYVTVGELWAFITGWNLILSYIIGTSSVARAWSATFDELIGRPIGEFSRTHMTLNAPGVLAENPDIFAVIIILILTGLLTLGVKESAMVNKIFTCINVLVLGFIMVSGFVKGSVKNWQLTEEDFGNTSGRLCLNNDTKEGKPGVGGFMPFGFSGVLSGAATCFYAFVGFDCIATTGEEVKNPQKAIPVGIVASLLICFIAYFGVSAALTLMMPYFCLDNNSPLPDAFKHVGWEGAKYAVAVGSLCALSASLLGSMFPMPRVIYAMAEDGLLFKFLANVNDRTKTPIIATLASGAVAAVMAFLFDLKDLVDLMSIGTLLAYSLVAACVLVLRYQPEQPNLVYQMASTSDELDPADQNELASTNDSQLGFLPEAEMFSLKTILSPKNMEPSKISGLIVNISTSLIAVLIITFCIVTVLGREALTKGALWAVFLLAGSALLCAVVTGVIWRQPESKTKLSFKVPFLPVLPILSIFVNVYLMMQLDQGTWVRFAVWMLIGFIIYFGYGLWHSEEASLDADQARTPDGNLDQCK
# UniProt P23919: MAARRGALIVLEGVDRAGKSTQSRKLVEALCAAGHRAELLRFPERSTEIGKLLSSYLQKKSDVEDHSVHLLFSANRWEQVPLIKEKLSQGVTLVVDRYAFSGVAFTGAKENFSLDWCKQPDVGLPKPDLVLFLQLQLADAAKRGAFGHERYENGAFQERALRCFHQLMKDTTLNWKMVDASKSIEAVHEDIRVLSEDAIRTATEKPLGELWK
# ± gives the standard deviation of the averaged measurements. The entries are a selection whose mix differs from that of the whole data set.
# Compound: Nc1ncnc2c1ncn2[C@@H]1O[C@H](COP(=O)(O)OP(=O)(O)NP(=O)(O)O)[C@@H](O)[C@H]1O [adenylyl imidodiphosphate]
# Experiment: NP40-soluble protein abundance relative to vehicle (solubility fold change) (ratio); higher = more soluble protein in presence of AMP-PNP
# Procedure, shortened: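 Values are fold changes against the detergent-processed vehicle, based on vsn-normalised intensities. Jurkat crude lysate was treated at eight concentrations from 0.1 to 10 mM (10 min at room temperature, then 3 min at 37 °C), solubilised with 0.8% NP40 and benzonase, ultracentrifuged and analysed by TMT-labelled LC-MS/MS over three independent experiments.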
Target,NP40-soluble protein abundance (concentration: 1mM),NP40-soluble protein abundance (concentration: 2mM),NP40-soluble protein abundance (concentration: 4mM),NP40-soluble protein abundance (concentration: 6mM),NP40-soluble protein abundance (concentration: 8mM),NP40-soluble protein abundance (concentration: 10mM)
ZNF24 (UniProt P17028),0.977 ± 0.049,0.978 ± 0.032,0.973 ± 0.06,0.989 ± 0.055,1.01 ± 0.049,1.01 ± 0.028
AKAP5 (UniProt P24588),0.994 ± 0.015,1.02 ± 0.049,0.981 ± 0.043,0.997 ± 0.017,0.985 ± 0.026,1.014 ± 0.0024
UniProt P33240 and related entries,1.02 ± 0.024,1.07 ± 0.063,1.02 ± 0.04,0.9986 ± 0.0025,0.977 ± 0.024,0.991 ± 0.051
UniProt P28799 and related entries,1.04 ± 0.03,1.09 ± 0.024,1.04 ± 0.035,0.999 ± 0.026,1.02 ± 0.034,1 ± 0.028
DDX6 (UniProt P26196),0.999 ± 0.034,0.98 ± 0.034,1.023 ± 0.0053,1.05 ± 0.026,1.06 ± 0.021,1.07 ± 0.015
XPA (UniProt P23025),0.9965 ± 0.0067,0.991 ± 0.027,1.02 ± 0.022,0.981 ± 0.044,1.01 ± 0.015,1 ± 0.034
SRM (UniProt P19623),0.998 ± 0.012,0.948 ± 0.056,0.994 ± 0.0049,0.978 ± 0.032,1.01 ± 0.043,0.977 ± 0.021
CHM (UniProt P24386),0.97 ± 0.023,0.96 ± 0.048,1.01 ± 0.02,0.961 ± 0.016,0.9506 ± 0.003,0.959 ± 0.04
GTF2E2 (UniProt P29084),1.04 ± 0.026,1.14 ± 0.11,1.07 ± 0.061,1.15 ± 0.096,1.1 ± 0.13,1.21 ± 0.16
UniProt P30626 and related entries,0.971 ± 0.039,1.01 ± 0.033,0.992 ± 0.025,0.976 ± 0.049,0.968 ± 0.024,0.974 ± 0.063
IMPA1 (UniProt P29218),0.99 ± 0.031,0.96 ± 0.022,0.964 ± 0.038,0.955 ± 0.024,0.942 ± 0.018,0.917 ± 0.048
RPL12 (UniProt P30050),0.987 ± 0.047,0.978 ± 0.025,0.885 ± 0.046,0.902 ± 0.062,0.811 ± 0.048,0.873 ± 0.12
UniProt P25705 and related entries,0.973 ± 0.036,0.929 ± 0.044,0.934 ± 0.044,0.982 ± 0.021,0.976 ± 0.03,0.961 ± 0.077
ZNF22 (UniProt P17026),0.977 ± 0.013,1.02 ± 0.017,0.996 ± 0.033,1.02 ± 0.034,1.02 ± 0.048,1.04 ± 0.047
EIF4A3 (UniProt P38919),0.908 ± 0.065,0.763 ± 0.11,0.9 ± 0.085,0.986 ± 0.12,1.06 ± 0.092,0.947 ± 0.079
UniProt P19525 and related entries,1.07 ± 0.012,0.999 ± 0.059,1.07 ± 0.04,1.09 ± 0.038,1.16 ± 0.04,1.07 ± 0.013
ZNF8 (UniProt P17098),1.01 ± 0.025,1.02 ± 0.018,0.975 ± 0.015,0.931 ± 0.022,0.911 ± 0.04,0.909 ± 0.024
AKT2 (UniProt P31751),0.974 ± 0.025,0.95 ± 0.043,0.969 ± 0.034,0.947 ± 0.031,0.969 ± 0.017,0.96 ± 0.044
ARL2 (UniProt P36404),0.972 ± 0.036,0.932 ± 0.035,0.963 ± 0.052,1 ± 0.056,0.992 ± 0.061,1.02 ± 0.046
MCM3 (UniProt P25205),0.909 ± 0.049,0.883 ± 0.037,0.899 ± 0.075,0.94 ± 0.011,0.943 ± 0.026,0.93 ± 0.079

Target,NP40-soluble protein abundance (concentration: 1mM),NP40-soluble protein abundance (concentration: 2mM),NP40-soluble protein abundance (concentration: 4mM),NP40-soluble protein abundance (concentration: 6mM),NP40-soluble protein abundance (concentration: 8mM),NP40-soluble protein abundance (concentration: 10mM)
UQCRC2 (UniProt P22695),0.978 ± 0.046,0.901 ± 0.014,0.995 ± 0.085,1.06 ± 0.07,1.1 ± 0.043,1.05 ± 0.065
UniProt P28074 and related entries,0.925 ± 0.072,0.828 ± 0.082,0.936 ± 0.12,0.95 ± 0.062,1.02 ± 0.11,1 ± 0.2
DEK (UniProt P35659),1.07 ± 0.025,1.19 ± 0.11,1.16 ± 0.029,1.21 ± 0.039,1.15 ± 0.11,1.26 ± 0.074
IL2RG (UniProt P31785),1.01 ± 0.027,1.02 ± 0.063,1.01 ± 0.031,1.01 ± 0.03,0.998 ± 0.015,1.01 ± 0.018
UniProt P35611 and related entries,0.995 ± 0.043,0.99 ± 0.034,0.999 ± 0.033,1 ± 0.014,1 ± 0.041,0.992 ± 0.039
CD82 (UniProt P27701),1.15 ± 0.1,1.26 ± 0.036,1.11 ± 0.12,1.1 ± 0.081,1.03 ± 0.026,1.08 ± 0.074
EEF1B2 (UniProt P24534),1.09 ± 0.18,0.936 ± 0.22,0.93 ± 0.067,0.822 ± 0.21,0.863 ± 0.12,0.845 ± 0.12
UniProt P28482,0.972 ± 0.033,0.905 ± 0.077,0.9497 ± 0.0082,1.02 ± 0.067,1.01 ± 0.058,0.968 ± 0.037
UniProt P22694 and related entries,0.983 ± 0.016,0.947 ± 0.042,0.973 ± 0.016,0.984 ± 0.041,0.98 ± 0.013,0.964 ± 0.054
UniProt P19838 and related entries,0.998 ± 0.015,0.955 ± 0.064,0.962 ± 0.016,0.966 ± 0.031,0.948 ± 0.023,0.929 ± 0.025
ABCD3 (UniProt P28288),0.958 ± 0.036,0.842 ± 0.14,0.935 ± 0.033,0.92 ± 0.029,0.957 ± 0.071,0.894 ± 0.096
UniProt P27987 and related entries,0.997 ± 0.042,1.012 ± 0.006,1.01 ± 0.033,1 ± 0.024,0.988 ± 0.03,0.978 ± 0.022
AHCY (UniProt P23526),0.965 ± 0.027,0.878 ± 0.12,0.952 ± 0.025,1 ± 0.039,1.03 ± 0.025,0.954 ± 0.023
UniProt P23511 and related entries,0.944 ± 0.036,1.1 ± 0.29,0.917 ± 0.029,0.985 ± 0.092,0.97 ± 0.058,0.953 ± 0.055
UniProt P30520,0.996 ± 0.024,1 ± 0.027,0.9881 ± 0.0078,0.9726 ± 0.0048,0.9707 ± 0.0055,0.9624 ± 0.0086
RAB4A (UniProt P20338),1 ± 0.024,0.997 ± 0.034,0.989 ± 0.028,1.02 ± 0.034,1.021 ± 0.0099,1.02 ± 0.025
ALDH4A1 (UniProt P30038),0.99 ± 0.028,1.02 ± 0.016,0.977 ± 0.033,0.975 ± 0.023,0.938 ± 0.013,0.954 ± 0.02
UniProt P27635 and related entries,0.97 ± 0.037,0.939 ± 0.022,0.879 ± 0.059,0.865 ± 0.078,0.726 ± 0.18,0.908 ± 0.04
LMNB1 (UniProt P20700),0.963 ± 0.017,0.929 ± 0.041,0.828 ± 0.032,0.776 ± 0.015,0.709 ± 0.03,0.718 ± 0.037
PPIF (UniProt P30405),1.01 ± 0.032,1.03 ± 0.047,0.993 ± 0.046,1.03 ± 0.019,0.989 ± 0.03,1.01 ± 0.049

Target,NP40-soluble protein abundance (concentration: 1mM),NP40-soluble protein abundance (concentration: 2mM),NP40-soluble protein abundance (concentration: 4mM),NP40-soluble protein abundance (concentration: 6mM),NP40-soluble protein abundance (concentration: 8mM),NP40-soluble protein abundance (concentration: 10mM)
UniProt P26038 and related entries,0.967 ± 0.13,1.06 ± 0.14,0.988 ± 0.13,0.916 ± 0.088,0.935 ± 0.012,0.936 ± 0.067
CBL (UniProt P22681),1.03 ± 0.051,1.04 ± 0.059,1.04 ± 0.058,1.04 ± 0.053,1.05 ± 0.043,1.07 ± 0.013
ARID4A (UniProt P29374),1.06 ± 0.053,1.07 ± 0.039,1.07 ± 0.036,1.03 ± 0.031,1.01 ± 0.032,1.07 ± 0.033
UniProt P23610,1.02 ± 0.056,0.963 ± 0.03,1.01 ± 0.058,0.937 ± 0.04,0.998 ± 0.048,0.917 ± 0.054
UniProt P21964 and related entries,0.963 ± 0.039,0.894 ± 0.068,0.937 ± 0.035,0.95 ± 0.018,0.962 ± 0.03,0.919 ± 0.038
UniProt P30622 and related entries,1.02 ± 0.029,1.08 ± 0.05,1.05 ± 0.031,1.03 ± 0.049,0.972 ± 0.021,1.03 ± 0.049
FDFT1 (UniProt P37268),0.993 ± 0.038,0.952 ± 0.027,0.991 ± 0.024,1.03 ± 0.1,1.05 ± 0.057,1.01 ± 0.078
ME2 (UniProt P23368),0.932 ± 0.029,0.83 ± 0.14,0.928 ± 0.044,0.918 ± 0.031,0.962 ± 0.024,0.876 ± 0.035
UniProt P29350 and related entries,1.01 ± 0.02,0.965 ± 0.036,0.985 ± 0.025,0.969 ± 0.014,0.987 ± 0.024,0.956 ± 0.024
HSPA4 (UniProt P34932),0.977 ± 0.015,0.995 ± 0.023,0.9682 ± 0.0059,0.982 ± 0.0082,0.94 ± 0.026,0.949 ± 0.046
UniProt P36954,1.01 ± 0.022,1.05 ± 0.039,0.998 ± 0.026,0.958 ± 0.051,0.965 ± 0.066,0.95 ± 0.051
UniProt P30281 and related entries,0.988 ± 0.023,0.92 ± 0.035,0.982 ± 0.023,0.979 ± 0.038,1.02 ± 0.012,0.98 ± 0.042
P39880-3|Q13948 and related entries (UniProt Q13948+P39880),1.044 ± 0.0039,1.1 ± 0.077,1.03 ± 0.019,1.02 ± 0.035,0.98 ± 0.018,0.9987 ± 0.0092
TRIM21 (UniProt P19474),0.9726 ± 0.0096,0.982 ± 0.024,0.977 ± 0.035,0.97 ± 0.016,0.964 ± 0.013,0.954 ± 0.048
MAT2A (UniProt P31153),0.989 ± 0.025,0.917 ± 0.077,0.963 ± 0.015,0.975 ± 0.021,0.98 ± 0.045,0.951 ± 0.019
UniProt P38117 and related entries,0.981 ± 0.016,0.983 ± 0.021,0.967 ± 0.029,0.992 ± 0.018,0.966 ± 0.034,0.998 ± 0.027
SLC7A1 (UniProt P30825),0.989 ± 0.005,1 ± 0.11,0.977 ± 0.012,0.97 ± 0.068,0.9401 ± 0.0085,0.922 ± 0.02
UniProt P27824 and related entries,1.01 ± 0.026,0.991 ± 0.011,0.985 ± 0.019,0.995 ± 0.025,1.009 ± 0.01,0.969 ± 0.039
DTYMK (UniProt P23919),0.975 ± 0.027,0.936 ± 0.02,0.9823 ± 0.0086,1.01 ± 0.056,0.998 ± 0.03,1.012 ± 0.004
UniProt P19793-2,1.02 ± 0.029,1 ± 0.035,0.9871 ± 0.0057,0.986 ± 0.058,0.9769 ± 0.0031,0.9745 ± 0.0086
